# Data as given in paper PMC9430734.
# B1: CV_2846 (protein, UniProt Q7NU57 1-66)
# chain: MIGEVNFYGVYFPSLLVMMVIAFAASSLLRRALARLGLYRAVWHRSLFNFALYLIVLGATIALFHR
# Target: VgrG3 fused to a hemagglutinin epitope at its C terminus (VgrG3-HA) (Chromobacterium violaceum ATCC 12472)
# Test: affinity purification with mass spectrometry
binder,measurement,value
B1,binding,binds

# No constants are given. Whether binding was seen depends on the method and setting. In cells and extracts the contact can be indirect. Here binding means that the protein was enriched with, or labelled near, the bait; the list need not be complete.
